PubChem BioAssay AID686943 | Drosophila RNAi Screening Center | 2013

Screen: 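Fly genes whose loss alters ERK activation after insulin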 (primary screen)
Cell system: Drosophila S2R+ haemocyte-like cells expressing YFP-tagged ERK (Rolled)
Knock-down reagent: long dsRNA against Drosophila genes
Challenge: insulin stimulation versus unstimulated cells; dose and duration not given
Measured: 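Antibody staining for doubly phosphorylated ERK divided by ERK-YFP signal, as plate z-scores, in insulin-treated and untreated cells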
Scale: replicate 1, z-score of dpERK with insulin: higher = more active ERK per ERK-YFP after insulin
The deposit covers about 23,000 reagents; this is an unselected part of those with a known target gene and a result. 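Extra replicates exist only for a retested subset of genes; insulin dose and duration not given; both raised and lowered dpERK matter.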 A plus sign joins genes that one reagent is predicted to hit. Further read-outs or replicates are left out here. No sequences are given here. The record does not give: the amount of reagent, the time to read-out.

| predicted target | amplicon | replicate 1, z-score of dpERK with insulin |
| --- | --- | --- |
| CG15237 | DRSC04971 | -0.55 |
| sotv + CG10731 | DRSC05930 | -0.15 |
| sotv + CG10731 | DRSC05997 | 0.35 |
| CG18596 | DRSC15355 | 0.1 |
| Prp6 (pre-mRNA processing factor 6) | DRSC10724 | 0.06 |
| Prp6 (pre-mRNA processing factor 6) | DRSC21773 | 2.27 |
| asRNA:CR31144 + RpL3 | DRSC16834 | -2.53 |
| Reck (Reversion-inducing-cysteine-rich protein with kazal motifs) | DRSC10504 | 0 |
| Reck (Reversion-inducing-cysteine-rich protein with kazal motifs) | DRSC10505 | -0.81 |
| nsl1 (non-specific lethal 1) | DRSC15625 | 3.4 |
| CG3062 | DRSC18572 | -0.15 |
| CG15528 | DRSC15065 | 0.26 |
| CG14207 | DRSC19562 | 0.45 |
| CG14207 | DRSC19563 | -1.5 |
| Ir94e (Ionotropic receptor 94e) | DRSC15229 | 1.81 |
| Vap33 (VAMP-associated protein 33kDa) | DRSC18384 | 0.26 |
| spz3 (spatzle 3) | DRSC02391 | 0.4 |
| spz3 (spatzle 3) | DRSC03008 | 1.36 |
| Pi3K21B | DRSC00771 | 0.53 |
| Roc1a (Regulator of cullins 1a) | DRSC18483 | -0.19 |
| Eglp4 (Entomoglyceroporin 4) | DRSC04438 | -0.23 |
| Prosalpha1R + Prosalpha1 | DRSC07515 | -2.09 |
| CG34150 | DRSC13689 | 0.52 |
| Crag | DRSC18454 | 0.71 |
| Uxs (UDP-xylose synthase) | DRSC10941 | -0.27 |
| Cpr62Bc (Cuticular protein 62Bc) | DRSC08545 | 1.1 |
| step (steppke) | DRSC03694 | -4.48 |
| step (steppke) | DRSC03699 | -1.37 |
| CG30355 | DRSC21958 | 0.47 |
| BomS4 (Bomanin Short 4) | DRSC22509 | 0.13 |
| escl | DRSC02828 | 0.9 |
| CG9570 | DRSC20687 | 0.99 |
| Tektin-A (Tektin A) | DRSC01921 | -0.62 |
| mtDNA-helicase (mitochondrial DNA helicase) | DRSC02912 | -0.89 |
| Gcn2 | DRSC16678 | 0.29 |
| CG11425 | DRSC11657 | 0.25 |
| CG44433 | DRSC06517 | 0.61 |
| CG44433 | DRSC06518 | 0.21 |
| CG42322 | DRSC15112 | 0.37 |
| CG42322 | DRSC15113 | 0.56 |
| CG42322 | DRSC15114 | -0.83 |
| CG14125 | DRSC10129 | -0.18 |
| kcc (kazachoc) | DRSC04316 | 0.45 |
| kcc (kazachoc) | DRSC04516 | -0.44 |
| Cdc5 (Cell division cycle 5) | DRSC08577 | 2.01 |
| Mip (Myoinhibiting peptide precursor) | DRSC10639 | -0.05 |
| chm (chameau) | DRSC03341 | -0.23 |
| Zcchc7 (Zinc finger CCHC-type containing 7) | DRSC11099 | 1.75 |
| rpr (reaper) | DRSC11390 | 1.69 |
| CG8531 | DRSC07209 | 0.06 |
| Brd7-9 (Bromodomain containing 7/9) | DRSC03017 | 0.19 |
| edin (elevated during infection) | DRSC09488 | 0.56 |
| CG12715 | DRSC19492 | 0.49 |
| Gr92a (Gustatory receptor 92a) | DRSC21631 | -0.79 |
| ND-B14.5AL (NADH dehydrogenase (ubiquinone) B14.5 A subunit-like) | DRSC11795 | -0.2 |
| CG5641 | DRSC15852 | -0.54 |
| TBC1d7 + mRpS24 | DRSC14611 | -0.47 |
| l(2)gl (lethal (2) giant larvae) | DRSC00825 | -0.17 |
| Acsl (Acyl-CoA synthetase long-chain) | DRSC07252 | 0.4 |
| Grip163 | DRSC10538 | 0.29 |
| CG17141 | DRSC15178 | 0.12 |
| CG12056 | DRSC17796 | -0.02 |
| CG6569 | DRSC16067 | 0.47 |
| CG5103 | DRSC10481 | -0.14 |
| Dp (DP transcription factor) | DRSC07402 | -2.53 |
| CG5623 | DRSC15848 | 1.08 |
| jv (javelin) | DRSC08831 | -0.5 |
| jv (javelin) | DRSC08832 | -0.31 |
| ppk23 (pickpocket 23) | DRSC20110 | -1.43 |
| CG32269 + CG32270 | DRSC08195 | 0.09 |
| Golgin97 (Golgin 97) | DRSC06895 | 0.07 |
| CG4511 | DRSC15589 | -0.91 |
| ea (easter) | DRSC16939 | 0.47 |

In a second layout: 8 of the entries above.
Reck (Reversion-inducing-cysteine-rich protein with kazal motifs) [DRSC10505]
- replicate 1, z-score of dpERK with insulin: -0.81

nsl1 (non-specific lethal 1) [DRSC15625]
- replicate 1, z-score of dpERK with insulin: 3.4

CG3062 [DRSC18572]
- replicate 1, z-score of dpERK with insulin: -0.15

CG15528 [DRSC15065]
- replicate 1, z-score of dpERK with insulin: 0.26

CG14207 [DRSC19562]
- replicate 1, z-score of dpERK with insulin: 0.45

CG14207 [DRSC19563]
- replicate 1, z-score of dpERK with insulin: -1.5

Ir94e (Ionotropic receptor 94e) [DRSC15229]
- replicate 1, z-score of dpERK with insulin: 1.81

Vap33 (VAMP-associated protein 33kDa) [DRSC18384]
- replicate 1, z-score of dpERK with insulin: 0.26
